At least one compound was matched to its structure with a doubt left.
Assays:
Type in all cases: in vivo, mouse (C57Bl/6J)
Details in all cases: 5 mg/kg oral gavage
[1] = target: FAAH (Mus musculus (Mouse), UniProt O08914); test: Mouse brain proteomes from inhibitor treated mice (oral gavage, sacrificed 4 h after administration, ABPP analysis), FAAH
Method: (§1) Preparation of Mouse Brain Proteomes from Inhibitor Treated Mice.
(§2) Inhibitors were administered to wild-type C57Bl/6J by oral gavage in a vehicle, e.g. PEG400/Ethanol/PBS (7/2/1). Each animal was sacrificed 4 h following administration and brain proteomes were prepared and analyzed according to previously established methods (See Niphakis, M. J., et al. (2011) ACS Chem. Neurosci. and Long, J. Z., et al. Nat. Chem. Biol. 5:37-44). Data from this assay is shown in Table 2 (% inhibition at 5 mg/kg).

Sequences of proteins named here, by UniProt entry; tags and fusion partners are left off. A change or cut given only in a name is not applied to a line headed by its entry.
UniProt O08914, whole entry: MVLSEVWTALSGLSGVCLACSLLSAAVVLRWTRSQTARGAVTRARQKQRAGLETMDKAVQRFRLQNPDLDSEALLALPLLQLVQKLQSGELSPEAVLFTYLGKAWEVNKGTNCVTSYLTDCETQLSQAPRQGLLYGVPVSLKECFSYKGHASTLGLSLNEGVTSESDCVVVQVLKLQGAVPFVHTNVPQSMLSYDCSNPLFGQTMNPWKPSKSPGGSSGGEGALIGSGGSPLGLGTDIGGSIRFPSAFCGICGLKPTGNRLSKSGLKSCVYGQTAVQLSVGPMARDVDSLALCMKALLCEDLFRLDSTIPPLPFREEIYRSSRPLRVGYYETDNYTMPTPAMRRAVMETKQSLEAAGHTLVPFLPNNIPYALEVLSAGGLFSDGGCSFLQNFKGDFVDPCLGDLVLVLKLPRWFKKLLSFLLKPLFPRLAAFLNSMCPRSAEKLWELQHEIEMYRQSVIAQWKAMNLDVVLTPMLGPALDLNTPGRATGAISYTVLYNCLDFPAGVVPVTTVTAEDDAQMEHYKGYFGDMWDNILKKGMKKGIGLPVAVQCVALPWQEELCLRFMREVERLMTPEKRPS
UniProt Q8R2Y0: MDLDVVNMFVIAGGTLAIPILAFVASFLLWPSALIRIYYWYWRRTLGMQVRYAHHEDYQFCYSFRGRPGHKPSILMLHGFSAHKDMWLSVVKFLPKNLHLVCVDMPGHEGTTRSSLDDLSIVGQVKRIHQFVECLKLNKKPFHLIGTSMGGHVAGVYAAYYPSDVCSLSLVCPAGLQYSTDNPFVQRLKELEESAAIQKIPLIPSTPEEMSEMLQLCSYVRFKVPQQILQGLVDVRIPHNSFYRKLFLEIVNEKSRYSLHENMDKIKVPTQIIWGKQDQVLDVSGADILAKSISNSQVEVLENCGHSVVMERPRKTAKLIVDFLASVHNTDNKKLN
UniProt O35678, whole entry: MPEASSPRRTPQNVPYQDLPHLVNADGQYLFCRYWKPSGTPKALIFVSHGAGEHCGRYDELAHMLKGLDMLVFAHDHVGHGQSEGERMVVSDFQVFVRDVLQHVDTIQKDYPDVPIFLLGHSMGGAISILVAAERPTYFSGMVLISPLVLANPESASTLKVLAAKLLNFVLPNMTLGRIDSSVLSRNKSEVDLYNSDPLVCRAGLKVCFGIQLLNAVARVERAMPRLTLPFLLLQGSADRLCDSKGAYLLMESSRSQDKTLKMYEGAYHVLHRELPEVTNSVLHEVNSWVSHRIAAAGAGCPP

[2] = target: ABHD6 (Mus musculus (Mouse), UniProt Q8R2Y0); test: Mouse brain proteomes from inhibitor treated mice (oral gavage, sacrificed 4 h after administration, ABPP analysis), ABHD6
Method: as §1, §2

[3] = target: MAGL (Mus musculus (Mouse), UniProt O35678); test: Mouse brain proteomes from inhibitor treated mice (oral gavage, sacrificed 4 h after administration, ABPP analysis)
Method: as §1, §2

CC(=O)N1CCCc2cccc(CN3CCC4(CCN(C(=O)OC(C(F)(F)F)C(F)(F)F)CC4)C3)c21 [Example 70, 1,1,1,3,3,3-Hexafluoropropan-2-yl 2-((1-acetyl-1,2,3,4-tetrahydroquinolin-8-yl)methyl)-2,8-diazaspiro[4.5]decane-8-carboxylate]
FAAH % Inh 5 mg/kg (mouse) [1]: # (# is <25%) | ABHD6 % Inh 5 mg/kg (mouse) [2]: ### (### is ≥75%) | MAGL % Inh 5 mg/kg (mouse) [3]: ### (### is ≥75%)

— patent publication US10030020B2, “Spirocycle compounds and methods of making and using same” (Abide Therapeutics, Inc., priority 2016, dated 2018)
